PubChem BioAssay AID1159584, Peter MacCallum Cancer Centre | 2016
Purpose: 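Knock-downs that harm CDH1-null cells more than parental MCF10A cells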 (primary screen). Cell system: human MCF10A breast epithelial cells, parental and CDH1-null. Reagents: siRNA against human genes. Read-out: 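ATP luminescence (CellTiter-Glo) viability per line relative to mean mock wells over all plates, and the ratio of CDH1-null to parental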. Reading the numbers: CDH1-null / parental viability ratio: higher = CDH1-null cells survive relatively better than parental.
In all, the deposit lists about 18,000 reagents; shown is a random part of them. The numbers tell different reagents against one gene apart. Further read-outs or replicates are left out here. The record does not give: the amount of reagent, the time to read-out.

DSG4 (desmoglein 4)
- CDH1-null / parental viability ratio: 1.18

NDUFS3 (NADH:ubiquinone oxidoreductase core subunit S3)
- CDH1-null / parental viability ratio: 1.17

ABCA4 (ATP binding cassette subfamily A member 4)
- CDH1-null / parental viability ratio: 0.94

CDK5R2 (cyclin dependent kinase 5 regulatory subunit 2)
- CDH1-null / parental viability ratio: 1.04

AUTS2 (activator of transcription and developmental regulator AUTS2)
- CDH1-null / parental viability ratio: 1.21

HSPBAP1 (HSPB1 associated protein 1)
- CDH1-null / parental viability ratio: 1

RECQL4 (RecQ like helicase 4)
- CDH1-null / parental viability ratio: 1.29

SOX14 (SRY-box transcription factor 14)
- CDH1-null / parental viability ratio: 0.97

DSCC1
- CDH1-null / parental viability ratio: 1.06

CBX6 (chromobox 6)
- CDH1-null / parental viability ratio: 1.09

CEP70 (centrosomal protein 70)
- CDH1-null / parental viability ratio: 1.04

ELP6 (elongator acetyltransferase complex subunit 6)
- CDH1-null / parental viability ratio: 0.86

GARIN2 (golgi associated RAB2 interactor family member 2)
- CDH1-null / parental viability ratio: 0.85

KCNJ1 (potassium inwardly rectifying channel subfamily J member 1)
- CDH1-null / parental viability ratio: 1.33

AP5B1 (adaptor related protein complex 5 subunit beta 1)
- CDH1-null / parental viability ratio: 0.97

FOXRED2 (FAD dependent oxidoreductase domain containing 2)
- CDH1-null / parental viability ratio: 0.79

Looked up above.
CBX6 (chromobox 6), CDH1-null / parental viability ratio → 1.09
Value for RECQL4 (RecQ like helicase 4) under “CDH1-null / parental viability ratio”: 1.29
Value of DSG4 (desmoglein 4) under “CDH1-null / parental viability ratio”: 1.18

The listing continues.
ARID1A (AT-rich interaction domain 1A)
- CDH1-null / parental viability ratio: 0.83

CIPC (CLOCK interacting pacemaker)
- CDH1-null / parental viability ratio: 1.2

C5orf46 (chromosome 5 open reading frame 46)
- CDH1-null / parental viability ratio: 1.15

SLC7A8
- CDH1-null / parental viability ratio: 0.95

INSC (INSC spindle orientation adaptor protein)
- CDH1-null / parental viability ratio: 0.88

LRCH4
- CDH1-null / parental viability ratio: 1.18

TRIM72 (tripartite motif containing 72)
- CDH1-null / parental viability ratio: 0.85

ISCA2 (iron-sulfur cluster assembly 2)
- CDH1-null / parental viability ratio: 0.88

MT1X (metallothionein 1X)
- CDH1-null / parental viability ratio: 1.17

GNRH1 (gonadotropin releasing hormone 1)
- CDH1-null / parental viability ratio: 0.88

ACTL6B (actin like 6B)
- CDH1-null / parental viability ratio: 0.91

RHBDF1 (rhomboid 5 homolog 1)
- CDH1-null / parental viability ratio: 0.8

EIF4EBP2
- CDH1-null / parental viability ratio: 1.14

MRPL22 (mitochondrial ribosomal protein L22)
- CDH1-null / parental viability ratio: 1.01

RNF213 (ring finger protein 213) #1
- CDH1-null / parental viability ratio: 0.88

RNF213 (ring finger protein 213) #2
- CDH1-null / parental viability ratio: 0.96

SYNGR4 (synaptogyrin 4)
- CDH1-null / parental viability ratio: 1.18

FOXS1 (forkhead box S1)
- CDH1-null / parental viability ratio: 0.95

CD200R1 (CD200 receptor 1)
- CDH1-null / parental viability ratio: 0.84

KCNE2
- CDH1-null / parental viability ratio: 1.15

DCAF4 (DDB1 and CUL4 associated factor 4)
- CDH1-null / parental viability ratio: 1.17

NRF1 (nuclear respiratory factor 1)
- CDH1-null / parental viability ratio: 1.25

DRAM2 (DNA damage regulated autophagy modulator 2)
- CDH1-null / parental viability ratio: 0.98

DOCK6 (dedicator of cytokinesis 6)
- CDH1-null / parental viability ratio: 0.9

CBLB (Cbl proto-oncogene B)
- CDH1-null / parental viability ratio: 0.91

TSHZ1 (teashirt zinc finger homeobox 1)
- CDH1-null / parental viability ratio: 0.82

USP19 (ubiquitin specific peptidase 19)
- CDH1-null / parental viability ratio: 1.03

BMAL1 (basic helix-loop-helix ARNT like 1)
- CDH1-null / parental viability ratio: 1.07

SNCB (synuclein beta)
- CDH1-null / parental viability ratio: 0.96
